Patent US20200377869

By UniProt entry, the sequences of proteins in these tests, tags left out.
UniProt P19821, whole entry: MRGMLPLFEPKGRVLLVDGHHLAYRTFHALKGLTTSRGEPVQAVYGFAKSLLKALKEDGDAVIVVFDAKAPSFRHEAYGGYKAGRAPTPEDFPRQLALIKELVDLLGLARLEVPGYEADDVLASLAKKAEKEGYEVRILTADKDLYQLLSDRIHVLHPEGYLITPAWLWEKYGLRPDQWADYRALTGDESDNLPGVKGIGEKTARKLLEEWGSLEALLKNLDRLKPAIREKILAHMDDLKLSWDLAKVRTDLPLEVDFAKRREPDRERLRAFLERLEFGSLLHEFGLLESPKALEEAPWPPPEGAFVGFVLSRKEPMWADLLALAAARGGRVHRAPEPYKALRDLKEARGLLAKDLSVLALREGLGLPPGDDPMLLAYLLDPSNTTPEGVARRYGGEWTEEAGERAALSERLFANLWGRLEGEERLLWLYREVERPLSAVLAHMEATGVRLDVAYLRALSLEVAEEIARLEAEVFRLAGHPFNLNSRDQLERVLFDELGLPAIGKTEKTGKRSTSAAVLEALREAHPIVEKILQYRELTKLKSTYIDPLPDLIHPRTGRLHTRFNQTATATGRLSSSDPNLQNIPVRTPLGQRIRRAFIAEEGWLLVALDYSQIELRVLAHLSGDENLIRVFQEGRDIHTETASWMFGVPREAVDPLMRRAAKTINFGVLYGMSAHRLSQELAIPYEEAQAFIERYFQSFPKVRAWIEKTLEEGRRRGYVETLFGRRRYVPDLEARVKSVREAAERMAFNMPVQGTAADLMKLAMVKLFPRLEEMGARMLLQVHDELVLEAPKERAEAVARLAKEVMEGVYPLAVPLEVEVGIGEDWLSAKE

What was measured:
Taq DNA polymerase = Taq DNA polymerase (UniProt P19821); assay: inhibition of the protein; conditions: 80 nM aptamer, purified recombinant protein, protein details: GenScript E00007, folded or branched DNA
[1] = target: T1, Endonuclease V (Thermotoga maritima) (UniProt Q9X2H9); assay: enzyme reaction in vitro; conditions: purified recombinant protein, protein details: Fisher Scientific FEREN0141, folded or branched DNA
T1 sequence (looked up, limits assumed): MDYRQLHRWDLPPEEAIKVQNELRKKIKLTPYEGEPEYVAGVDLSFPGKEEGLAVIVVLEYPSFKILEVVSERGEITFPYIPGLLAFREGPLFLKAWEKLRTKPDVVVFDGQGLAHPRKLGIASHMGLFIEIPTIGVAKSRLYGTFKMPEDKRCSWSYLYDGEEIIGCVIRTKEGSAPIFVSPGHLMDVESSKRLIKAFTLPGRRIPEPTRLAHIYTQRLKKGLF

Question: “AAATTATATTCTTAGCGTTTTATAATTTTAAAACGAAGTTTTA [circular aptamer SEQ ID NO:14]” was tested. Which “functional effect of the aptamer” value (Taq DNA polymerase; deoxyinosine at position 15 (n), loop TTCTTAICGTTT [15 deoxyinosine (parent base G)], highly effective deactivation, 60 C, letters built from the parent sequence and the stated change, variant of circular aptamer SEQ ID …) did it give?
Answer: active

Question: And the “activity on this sequence” value ([1]; deoxyinosine at position 15 (n), loop TTCTTAICGTTT [15 deoxyinosine (parent base G)], only partial Taq reactivation (indirect PCR readout), letters built from the parent sequence and the stated change, variant of circular aptamer SEQ ID NO:6)?
Answer: less active

Question: How did the “functional effect of the aptamer” value (Taq DNA polymerase; effectively blocks Taq during PCR, 5 mM MgCl2, 50 mM KCl, 60 C) turn out when “AAATTATATTCTTAGCGTTTTATAATTTTAAAACGAAGTTTTA [circular aptamer SEQ ID NO:6]” was run?
Answer: active

Question: And the “activity on this sequence” value ([1]; inosine-free, Taq block not affected by endonuclease V (indirect PCR readout))?
Answer: not active

Question: “AAATTATATTCTTAGCGTTTTATAATTTTAAAACGAAGTTTCA [circular aptamer SEQ ID NO:8]” was tested. Which “functional effect of the aptamer” value (Taq DNA polymerase; deoxyinosine at position 30 (n) [30 deoxyinosine (parent base A)], very effective inactivation, 5 mM MgCl2, 60 C, letters built from the parent sequence and the stated change, variant of circular aptamer SEQ ID …) did it give?
Answer: active

Question: And the “activity on this sequence” value ([1]; deoxyinosine at position 30 (n) [30 deoxyinosine (parent base A)], very effective reactivation of Taq (indirect PCR readout), 0.04 U/uL, 5 mM MgCl2, letters built from the parent sequence and the stated change, variant of circular aptamer SEQ ID NO:6)?
Answer: active

Question: For “AAATTATATTCTTAGCGTTTTATAATTTCAAAACGAAGTTTTA [circular aptamer SEQ ID NO:10]”, which “functional effect of the aptamer” value (Taq DNA polymerase; deoxyinosine at position 43 (n) [43 deoxyinosine (parent base A)], less effective inactivation, worst of stem-inosine set, 60 C, letters built from the parent sequence and the stated change, variant of circular aptamer SEQ ID …) is on record?
Answer: less active

Question: What about the “activity on this sequence” value ([1]; deoxyinosine at position 43 (n) [43 deoxyinosine (parent base A)], Taq activity completely restored (indirect PCR readout), letters built from the parent sequence and the stated change, variant of circular aptamer SEQ ID NO:6) of the same sequence?
Answer: active

Question: With “AAATTATATTCTTAGCGTTTTATAATTTTAAAACGAAGTTTTA [circular aptamer SEQ ID NO:13]” as the sequence, how does the “functional effect of the aptamer” value (Taq DNA polymerase; deoxyinosine at position 13 (n), loop TTCTIAGCGTTT [13 deoxyinosine (parent base T)], inactivates but much less effective than SEQ 12, 60 C, letters built from the parent sequence and the stated change, variant of circular aptamer SEQ ID …) read?
Answer: less active

Question: How did the “functional effect of the aptamer” value (Taq DNA polymerase; deoxyinosine at position 3 (n) [3 deoxyinosine (parent base A)], very effective deactivation, 5 mM MgCl2, 60 C, letters built from the parent sequence and the stated change, variant of circular aptamer SEQ ID …) turn out when “AAATTATATTCTTAGCGTTTTATAACTTTAAAACGAAGTTTTA [circular aptamer SEQ ID NO:9]” was run?
Answer: active

Question: For “AAATTATATTCTTAGCGTTTTATAATTTTAAAACGAAGTTTTA [circular aptamer SEQ ID NO:15]”, which “functional effect of the aptamer” value (Taq DNA polymerase; deoxyinosine at position 17 (n), in loop [17 deoxyinosine (parent base G)], very ineffective deactivation, 60 C, letters built from the parent sequence and the stated change, variant of circular aptamer SEQ ID …) is on record?
Answer: less active

Question: “AAATTATATTCTTAGCGTTTTATAATTTTAACACGAAGTTTTA [circular aptamer SEQ ID NO:11]” was tested. Which “functional effect of the aptamer” value (Taq DNA polymerase; deoxyinosine at position 40 (n) [40 deoxyinosine (parent base T)], less effective inactivation, 60 C, letters built from the parent sequence and the stated change, variant of circular aptamer SEQ ID …) did it give?
Answer: less active

Question: And the “activity on this sequence” value ([1]; deoxyinosine at position 40 (n) [40 deoxyinosine (parent base T)], Taq activity completely restored (indirect PCR readout), letters built from the parent sequence and the stated change, variant of circular aptamer SEQ ID NO:6)?
Answer: active

Question: For “AGTTTTAAAATTATATTCTTAGCGTTTTATAATTTTAAAACGA [noncircular aptamer SEQ ID NO:5]”, which “functional effect of the aptamer” value (Taq DNA polymerase; very little if any polymerase deactivation, real-time PCR 60 C, 5 mM MgCl2, 50 mM KCl, pH 8.0, variant of circular aptamer SEQ ID NO:6) is on record?
Answer: less active

Question: With “AAACTATATTCTTAGCGTTTTATAATTTTAAAACGAAGTTTTA [circular aptamer SEQ ID NO:7]” as the sequence, how does the “functional effect of the aptamer” value (Taq DNA polymerase; deoxyinosine at position 25 (n) [25 deoxyinosine (parent base A)], very effective inactivation, 5 mM MgCl2, 60 C, letters built from the parent sequence and the stated change, variant of circular aptamer SEQ ID …) read?
Answer: active

Question: What about the “activity on this sequence” value ([1]; deoxyinosine at position 25 (n) [25 deoxyinosine (parent base A)], very effective reactivation of Taq (indirect PCR readout), 0.04 U/uL, 5 mM MgCl2, letters built from the parent sequence and the stated change, variant of circular aptamer SEQ ID NO:6) of the same sequence?
Answer: active

For some of these results: No signal at the amounts used counts as a negative. For some of these results: Tags and fusion partners may be left off the protein sequences shown. A weaker result is weaker than the reference pair of the same experiment. The exact form of at least one protein or probe is not confirmed.
